Laboratory results taken from PMC8080530, “Glucocorticoid receptor Thr524 phosphorylation by MINK1 induces interactions with 14-3-3 protein regulators” (The Journal of Biological Chemistry, 2021).
No constants are given. Whether binding was seen depends on the method and setting. Some entries that bind do so weakly or less than the wild type.

Chains of the proteins cited; added tags and fusions are not shown. Lines headed by an entry give the natural chain unless they say otherwise; changes in a name come on top.
UniProt P04150: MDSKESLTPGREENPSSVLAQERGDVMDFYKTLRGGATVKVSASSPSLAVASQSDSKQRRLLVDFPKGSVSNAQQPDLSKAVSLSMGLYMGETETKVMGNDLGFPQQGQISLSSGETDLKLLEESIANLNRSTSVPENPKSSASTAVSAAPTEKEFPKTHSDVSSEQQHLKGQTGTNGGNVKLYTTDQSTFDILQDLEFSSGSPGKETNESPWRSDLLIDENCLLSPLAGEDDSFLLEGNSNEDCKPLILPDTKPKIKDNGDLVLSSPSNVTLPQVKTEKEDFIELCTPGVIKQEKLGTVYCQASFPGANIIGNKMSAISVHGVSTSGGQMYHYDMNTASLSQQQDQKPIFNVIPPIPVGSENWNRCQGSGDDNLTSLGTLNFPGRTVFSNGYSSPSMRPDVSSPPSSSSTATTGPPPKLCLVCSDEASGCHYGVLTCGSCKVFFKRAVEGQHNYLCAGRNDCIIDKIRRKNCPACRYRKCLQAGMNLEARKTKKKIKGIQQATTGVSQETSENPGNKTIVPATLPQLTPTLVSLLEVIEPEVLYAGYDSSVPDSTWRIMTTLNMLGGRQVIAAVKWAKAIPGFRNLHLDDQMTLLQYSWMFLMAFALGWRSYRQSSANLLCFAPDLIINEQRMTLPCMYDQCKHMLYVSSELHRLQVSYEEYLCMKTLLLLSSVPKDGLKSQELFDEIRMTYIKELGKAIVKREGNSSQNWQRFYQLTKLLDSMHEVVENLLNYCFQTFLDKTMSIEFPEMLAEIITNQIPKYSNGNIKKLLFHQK
UniProt P29311: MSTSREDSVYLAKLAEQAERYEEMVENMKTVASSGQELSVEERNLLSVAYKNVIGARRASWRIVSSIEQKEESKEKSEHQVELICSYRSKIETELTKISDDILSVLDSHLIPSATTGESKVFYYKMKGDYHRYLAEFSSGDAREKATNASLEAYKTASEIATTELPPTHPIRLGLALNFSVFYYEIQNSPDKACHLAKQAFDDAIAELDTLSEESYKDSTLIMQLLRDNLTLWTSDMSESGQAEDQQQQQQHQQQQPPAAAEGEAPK

Assays:
[1] = biological target: GFP-GR, full-length WT glucocorticoid receptor (human) (UniProt P04150); experiment: condition: only cells without further stimulation (no calyculin A); far-Western, overlay or dot blot; GFP-Trap immunoprecipitates of U2OS cells transfected with GFP-GR or GFP-GR and FLAG-MINK1, without further stimulation; probed with BMH1-BMH2-digoxigenin; only the binder purified
[2] = biological target: GFP-GR, full-length WT glucocorticoid receptor (human) (UniProt P04150); experiment: far-Western, overlay or dot blot; GFP-Trap immunoprecipitates of transfected U2OS or HEK293 cells stimulated with forskolin or calyculin A (with or without co-transfected FLAG-MINK1), resolved on a gel and held on a PVDF membrane; probed with BMH1-BMH2-digoxigenin; anti-DIG detection; only the binder purified

binding [1]: no binding
binding [2]: binds
Substance: BMH1-BMH2-digoxigenin (the two recombinant yeast isoforms of 14-3-3 tagged with digoxigenin) (from UniProt P29311 1-267; P34730 1-273) (complex)
